The values below come from PMC12097062.

In this experiment the target is T1, Biotin-LACK156-173 (biotinylated 156-173 peptide of the Leishmania homolog of receptors for activated C kinase) (L. major).
T1 sequence (peptide, biotin (position not stated)): ICFSPSLEHPIVVSGSWD
Description: affinity purification with mass spectrometry; Biotin-LACK156-173 on streptavidin-coated magnetic beads, incubated with cell lysate (primary human RA-FLSs) at 4 °C for 12 h; eluate on SDS-PAGE, silver staining, bands identified by mass spectrometry; only the target purified.

No constants are given. Whether binding was seen depends on the method and setting. Binding seen in cells or lysates may run through a third protein. These calls come from enrichment with a bait or labelling near it, and not all partners need be listed.

B1: Dolichyl-Diphosphooligosaccharide-Protein Glycosyltransferase Non-Catalytic Subunit (DDOST) (protein, UniProt P39656 43-456)
chain: SGPRTLVLLDNLNVRETHSLFFRSLKDRGFELTFKTADDPSLSLIKYGEFLYDNLIIFSPSVEDFGGNINVETISAFIDGGGSVLVAASSDIGDPLRELGSECGIEFDEEKTAVIDHHNYDISDLGQHTLIVADTENLLKAPTIVGKSSLNPILFRGVGMVADPDNPLVLDILTGSSTSYSFFPDKPITQYPHAVGKNTLLIAGLQARNNARVIFSGSLDFFSDSFFNSAVQKAAPGSQRYSQTGNYELAVALSRWVFKEEGVLRVGPVSHHRVGETAPPNAYTVTDLVEYSIVIQQLSNGKWVPFDGDDIQLEFVRIDPFVRTFLKKKGGKYSVQFKLPDVYGVFQFKVDYNRLGYTHLYSSTQVSVRPLQHTQYERFIPSAYPYYASAFSMMLGLFIFSIVFLHMKEKEKSD
Regarding B1, the binding entry is recorded as “binds”.
